These are yes or no findings as the source states them, for the method shown. Some entries that bind do so weakly or less than the wild type. For some of these results: Sequences can lack the tags named with a protein.

The chains behind the UniProt entries cited, without tags or fusion partners. Where a name states a change or a piece, a line headed by the entry shows the natural chain unless it says otherwise.
UniProt Q96KQ7: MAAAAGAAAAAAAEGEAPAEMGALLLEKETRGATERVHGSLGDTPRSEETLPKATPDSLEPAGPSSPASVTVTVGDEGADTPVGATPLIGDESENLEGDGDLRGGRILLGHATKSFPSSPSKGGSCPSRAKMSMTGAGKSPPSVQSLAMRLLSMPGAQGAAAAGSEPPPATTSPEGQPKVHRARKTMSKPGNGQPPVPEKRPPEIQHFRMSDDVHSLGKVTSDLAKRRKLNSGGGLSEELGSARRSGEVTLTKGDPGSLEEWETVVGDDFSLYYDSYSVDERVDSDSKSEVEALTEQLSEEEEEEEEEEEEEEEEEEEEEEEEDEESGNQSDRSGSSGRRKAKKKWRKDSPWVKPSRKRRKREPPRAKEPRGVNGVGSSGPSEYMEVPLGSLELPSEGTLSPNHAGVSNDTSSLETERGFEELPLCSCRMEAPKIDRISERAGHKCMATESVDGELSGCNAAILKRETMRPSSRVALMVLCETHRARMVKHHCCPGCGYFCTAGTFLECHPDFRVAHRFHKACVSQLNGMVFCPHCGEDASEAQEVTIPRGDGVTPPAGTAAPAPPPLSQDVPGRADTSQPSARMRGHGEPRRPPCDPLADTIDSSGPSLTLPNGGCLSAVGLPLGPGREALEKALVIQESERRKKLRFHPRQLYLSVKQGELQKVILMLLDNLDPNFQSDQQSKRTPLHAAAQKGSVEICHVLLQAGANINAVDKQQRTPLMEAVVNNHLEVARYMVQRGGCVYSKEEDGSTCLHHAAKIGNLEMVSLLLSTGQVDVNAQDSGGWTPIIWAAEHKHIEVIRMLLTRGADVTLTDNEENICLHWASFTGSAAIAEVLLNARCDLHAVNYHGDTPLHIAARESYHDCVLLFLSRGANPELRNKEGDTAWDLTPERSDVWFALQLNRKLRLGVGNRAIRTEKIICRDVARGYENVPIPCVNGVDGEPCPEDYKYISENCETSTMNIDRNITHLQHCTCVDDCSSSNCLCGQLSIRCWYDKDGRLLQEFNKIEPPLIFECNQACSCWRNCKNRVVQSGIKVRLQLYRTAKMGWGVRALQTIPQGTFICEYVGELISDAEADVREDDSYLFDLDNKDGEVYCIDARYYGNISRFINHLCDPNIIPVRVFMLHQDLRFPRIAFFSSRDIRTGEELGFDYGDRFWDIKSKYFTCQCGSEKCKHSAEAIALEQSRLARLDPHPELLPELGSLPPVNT
UniProt P83916: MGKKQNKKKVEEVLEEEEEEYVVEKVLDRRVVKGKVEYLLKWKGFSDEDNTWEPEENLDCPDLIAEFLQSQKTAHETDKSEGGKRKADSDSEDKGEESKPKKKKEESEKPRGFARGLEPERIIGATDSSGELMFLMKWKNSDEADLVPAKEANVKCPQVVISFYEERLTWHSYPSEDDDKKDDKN

What all share (assay): fluorescence microscopy-based interaction-trap
Experiment [1] addresses T1, TetR-EYFP-ZNF518A^WT (human) (UniProt Q6AHZ1).
T1 sequence: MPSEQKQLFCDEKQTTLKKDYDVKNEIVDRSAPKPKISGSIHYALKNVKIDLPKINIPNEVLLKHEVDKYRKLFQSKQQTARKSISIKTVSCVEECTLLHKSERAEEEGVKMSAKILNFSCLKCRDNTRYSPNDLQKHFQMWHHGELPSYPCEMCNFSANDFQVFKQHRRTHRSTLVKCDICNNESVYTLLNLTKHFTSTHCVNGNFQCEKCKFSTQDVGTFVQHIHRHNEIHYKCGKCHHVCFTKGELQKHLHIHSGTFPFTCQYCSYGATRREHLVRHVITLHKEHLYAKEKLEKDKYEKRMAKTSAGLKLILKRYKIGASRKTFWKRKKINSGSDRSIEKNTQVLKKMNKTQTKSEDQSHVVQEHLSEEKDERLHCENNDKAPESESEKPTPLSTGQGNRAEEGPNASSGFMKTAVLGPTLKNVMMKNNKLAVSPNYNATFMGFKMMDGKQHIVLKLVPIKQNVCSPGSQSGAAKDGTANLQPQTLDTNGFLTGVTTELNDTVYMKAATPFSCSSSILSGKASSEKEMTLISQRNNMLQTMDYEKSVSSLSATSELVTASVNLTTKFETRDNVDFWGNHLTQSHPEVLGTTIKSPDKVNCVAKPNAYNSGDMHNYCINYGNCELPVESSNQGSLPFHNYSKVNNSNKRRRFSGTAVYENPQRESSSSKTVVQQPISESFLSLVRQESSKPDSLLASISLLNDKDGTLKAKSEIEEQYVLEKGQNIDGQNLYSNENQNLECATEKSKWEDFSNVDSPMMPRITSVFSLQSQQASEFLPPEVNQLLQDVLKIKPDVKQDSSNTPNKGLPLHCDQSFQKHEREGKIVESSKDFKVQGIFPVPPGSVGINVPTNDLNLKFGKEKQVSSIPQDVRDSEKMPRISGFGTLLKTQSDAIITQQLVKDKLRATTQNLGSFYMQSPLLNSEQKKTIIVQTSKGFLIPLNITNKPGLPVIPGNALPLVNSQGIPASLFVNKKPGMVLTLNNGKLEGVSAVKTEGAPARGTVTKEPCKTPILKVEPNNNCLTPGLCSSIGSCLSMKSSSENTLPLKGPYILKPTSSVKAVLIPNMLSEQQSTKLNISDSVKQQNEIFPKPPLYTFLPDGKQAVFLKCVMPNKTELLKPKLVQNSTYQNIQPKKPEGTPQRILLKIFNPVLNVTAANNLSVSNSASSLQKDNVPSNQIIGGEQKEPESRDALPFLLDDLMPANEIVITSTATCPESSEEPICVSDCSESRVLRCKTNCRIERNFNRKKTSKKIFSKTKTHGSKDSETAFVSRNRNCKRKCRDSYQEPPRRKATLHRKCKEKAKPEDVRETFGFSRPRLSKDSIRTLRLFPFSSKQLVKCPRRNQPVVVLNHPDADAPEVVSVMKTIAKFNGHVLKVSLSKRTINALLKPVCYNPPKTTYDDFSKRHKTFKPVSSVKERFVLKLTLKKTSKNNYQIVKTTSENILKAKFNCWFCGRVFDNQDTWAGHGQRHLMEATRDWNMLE

Experiment [2] concerns the target TetR-EYFP-ZNF518B^WT (human) (UniProt Q9C0D4).
In experiment [3] the target is TetR-EYFP-ZNF518B^344–987 (human) (UniProt Q9C0D4).
Experiment [4] addresses TetR-EYFP-ZNF518B^878–1074 (human) (UniProt Q9C0D4).
In experiment [5] the target is TetR-EYFP-ZNF518B^878–987 (human) (UniProt Q9C0D4).
Experiment [6] concerns the target TetR-EYFP-ZNF518B^344–1074 (human) (UniProt Q9C0D4).
Experiment [7] concerns the target TetR-EYFP-ZNF518B^555–1074 (human) (UniProt Q9C0D4).
The target in experiment [8] is TetR-EYFP-ZNF518B^770–987 (human) (UniProt Q9C0D4).
Experiment [9] addresses T2, TetR-EYFP-ZNF518B^555–769 (human) (UniProt Q9C0D4).
T2 sequence: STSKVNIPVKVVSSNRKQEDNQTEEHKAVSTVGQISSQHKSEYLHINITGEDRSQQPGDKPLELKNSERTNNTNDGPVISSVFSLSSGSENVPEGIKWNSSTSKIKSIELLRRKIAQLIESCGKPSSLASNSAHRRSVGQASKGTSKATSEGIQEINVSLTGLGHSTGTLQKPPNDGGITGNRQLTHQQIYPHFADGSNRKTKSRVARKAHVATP

The target of experiment [10] is T3, TetR-EYFP-ZNF518B^344–769 (human) (UniProt Q9C0D4).
T3 sequence: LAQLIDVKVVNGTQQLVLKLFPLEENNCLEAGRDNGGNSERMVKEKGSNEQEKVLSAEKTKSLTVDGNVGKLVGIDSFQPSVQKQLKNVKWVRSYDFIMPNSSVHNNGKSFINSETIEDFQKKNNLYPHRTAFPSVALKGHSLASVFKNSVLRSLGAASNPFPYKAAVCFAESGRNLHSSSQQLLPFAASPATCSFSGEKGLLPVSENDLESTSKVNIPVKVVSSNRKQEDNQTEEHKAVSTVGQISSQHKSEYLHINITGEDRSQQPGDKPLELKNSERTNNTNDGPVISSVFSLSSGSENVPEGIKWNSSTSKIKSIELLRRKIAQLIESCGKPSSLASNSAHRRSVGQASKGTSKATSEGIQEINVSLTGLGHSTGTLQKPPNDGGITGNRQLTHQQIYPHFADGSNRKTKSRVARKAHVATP

Regarding “Halo-G9a^291–545 (from UniProt Q96KQ7 291-545) (domain or fragment)”, the binding entry in experiment [1] and in experiment [2] was “binds” throughout.
Take “Halo-HP1β^93–185, chromo-shadow domain (from UniProt P83916 93-185) (domain or fragment)”: the binding entry in experiment [3], in experiment [4], in [5], in experiment [6], in experiment [7] and in [8] was “binds” each time.
With “Halo-G9a^291–1210 (from UniProt Q96KQ7 291-1210) (domain or fragment)”, the binding result in experiment [1] and in experiment [2] was “binds” throughout.
For Halo-HP1β (from UniProt P83916 1-185), the binding result in experiment [9] and in experiment [10] was “binds weakly” each time.
With “Halo-G9a^1–290 (from UniProt Q96KQ7 1-290) (domain or fragment)”, the binding entry in [1] and in experiment [2] was “no binding” each time.
With “Halo-HP1β^(1–92), chromo domain (from UniProt P83916 1-92) (domain or fragment)”, the binding result in experiment [3], in experiment [4], in [5], in [6], in experiment [7] and in experiment [8] was “no binding” in each case.
For “Halo-G9a^1–545 (from UniProt Q96KQ7 1-545) (domain or fragment)”, the binding entry in experiment [1] and in experiment [2] was “binds” throughout.

For the origin of these results see doi:10.1101/2022.09.15.508097.
